# Some of the results follow.
# B1: PGP3 (Chlamydia trachomatis), P0CE18 (protein)
# chain: MGNSGFYLYNTQNCVFADNIKVGQMTEPLKDQQIILGTTSTPVAAKMTASDGISLTVSNNPSTNASITIGLDAEKAYQLILEKLGDQILGGIADTIVDSTVQDILDKITTDPSLGLLKAFNNFPITNKIQCNGLFTPRNIETLLGGTEIGKFTVTPKSSGSMFLVSADIIASRMEGGVVLALVREGDSKPYAISYGYSSGVPNLCSLRTRIINTGLTPTTYSLRVGGLESGVVWVNALSNGNDILGITNTSNVSFLEVIPQTNA
# Key:
# Assay in all cases: glycan array binding signal (z-score within array); higher = stronger binding
# Details in all cases: glycan notation: IUPAC condensed, linker removed
# [1] = target: Fuc(a1-2)Gal(b1-4)[Fuc(a1-3)]GlcNAc
# How it was run: (§1)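 The binding signal is a Z-score computed within each array and averaged over linkers. Arrays of the same protein sequence at different concentrations or buffers were also averaged together. Data originate from 3228 arrays in the Consortium for Functional Glycomics database, kept only where the protein sequence was available.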
# [2] = target: Fuc(a1-2)Gal(b1-4)[Fuc(a1-3)]GlcNAc(b1-2)Man(a1-3)[Fuc(a1-2)Gal(b1-4)[Fuc(a1-3)]GlcNAc(b1-2)Man(a1-6)]Man(b1-4)GlcNAc(b1-4)GlcNAc
# How it was run: as §1
# [3] = target: Fuc(a1-2)Gal(b1-4)[Fuc(a1-3)]GlcNAc(b1-2)[Fuc(a1-2)Gal(b1-4)[Fuc(a1-3)]GlcNAc(b1-4)]Man(a1-3)[Fuc(a1-2)Gal(b1-4)[Fuc(a1-3)]GlcNAc(b1-2)Man(a1-6)]Man(b1-4)GlcNAc(b1-4)GlcNAc
# How it was run: as §1
# [4] = target: Fuc(a1-2)Gal(b1-4)[Fuc(a1-3)]GlcNAc(b1-3)Gal(b1-4)[Fuc(a1-3)]GlcNAc
# How it was run: as §1
# [5] = target: Fuc(a1-2)Gal(b1-4)[Fuc(a1-3)]GlcNAc(b1-3)Gal(b1-4)[Fuc(a1-3)]GlcNAc(b1-3)Gal(b1-4)[Fuc(a1-3)]GlcNAc
# How it was run: as §1
# [6] = target: Fuc(a1-2)Gal(b1-4)[Fuc(a1-3)]GlcNAc(b1-3)GalNAc
# How it was run: as §1
# Fuc(a1-2)Gal6S(b1-4)Glc = target: Fuc(a1-2)Gal6S(b1-4)Glc
# How it was run: as §1
# [7] = target: Fuc(a1-2)Gal6S(b1-4)Glc6S
# How it was run: as §1
# [8] = target: Fuc(a1-2)Gal6S(b1-4)GlcNAc
# How it was run: as §1
# Fuc(a1-2)[Gal(a1-3)]Gal = target: Fuc(a1-2)[Gal(a1-3)]Gal
# How it was run: as §1
# [9] = target: Fuc(a1-2)[Gal(a1-3)]Gal(b1-3)GalNAc
# How it was run: as §1
# [10] = target: Fuc(a1-2)[Gal(a1-3)]Gal(b1-3)GlcNAc
# How it was run: as §1
# [11] = target: Fuc(a1-2)[Gal(a1-3)]Gal(b1-3)GlcNAc(b1-2)Man(a1-3)[Fuc(a1-2)[Gal(a1-3)]Gal(b1-3)GlcNAc(b1-2)Man(a1-6)]Man(b1-4)GlcNAc(b1-4)GlcNAc
# How it was run: as §1
# [12] = target: Fuc(a1-2)[Gal(a1-3)]Gal(b1-3)GlcNAc(b1-2)Man(a1-3)[Fuc(a1-2)[Gal(a1-3)]Gal(b1-3)GlcNAc(b1-2)Man(a1-6)]Man(b1-4)GlcNAc(b1-4)[Fuc(a1-6)]GlcNAc
# How it was run: as §1
# [13] = target: Fuc(a1-2)[Gal(a1-3)]Gal(b1-3)GlcNAc(b1-3)GalNAc
# How it was run: as §1
# [14] = target: Fuc(a1-2)[Gal(a1-3)]Gal(b1-4)Glc
# How it was run: as §1
# [15] = target: Fuc(a1-2)[Gal(a1-3)]Gal(b1-4)GlcNAc
# How it was run: as §1
# [16] = target: Fuc(a1-2)[Gal(a1-3)]Gal(b1-4)GlcNAc(b1-2)Man(a1-3)[Fuc(a1-2)[Gal(a1-3)]Gal(b1-4)GlcNAc(b1-2)Man(a1-6)]Man(b1-4)GlcNAc(b1-4)GlcNAc
# How it was run: as §1
# [17] = target: Fuc(a1-2)[Gal(a1-3)]Gal(b1-4)GlcNAc(b1-2)Man(a1-3)[Fuc(a1-2)[Gal(a1-3)]Gal(b1-4)GlcNAc(b1-2)Man(a1-6)]Man(b1-4)GlcNAc(b1-4)[Fuc(a1-6)]GlcNAc
# How it was run: as §1
# [18] = target: Fuc(a1-2)[Gal(a1-3)]Gal(b1-4)GlcNAc(b1-3)GalNAc
# How it was run: as §1
# [19] = target: Fuc(a1-2)[Gal(a1-3)]Gal(b1-4)[Fuc(a1-3)]Glc
# How it was run: as §1
# [20] = target: Fuc(a1-2)[Gal(a1-3)]Gal(b1-4)[Fuc(a1-3)]GlcNAc
# How it was run: as §1
# [21] = target: Fuc(a1-2)[Gal(a1-3)]Gal(b1-4)[Fuc(a1-3)]GlcNAc(b1-3)GalNAc
# How it was run: as §1
# [22] = target: Fuc(a1-2)[Gal(a1-4)]Gal(b1-4)GlcNAc
# How it was run: as §1
# [23] = target: Fuc(a1-2)[GalNAc(a1-3)]Gal
# How it was run: as §1
# [24] = target: Fuc(a1-2)[GalNAc(a1-3)]Gal(b1-3)GalNAc(a1-3)[Fuc(a1-2)]Gal(b1-4)GlcNAc
# How it was run: as §1
# [25] = target: Fuc(a1-2)[GalNAc(a1-3)]Gal(b1-3)GlcNAc
# How it was run: as §1
# [26] = target: Fuc(a1-2)[GalNAc(a1-3)]Gal(b1-3)GlcNAc(b1-2)Man(a1-3)[Fuc(a1-2)[GalNAc(a1-3)]Gal(b1-3)GlcNAc(b1-2)Man(a1-6)]Man(b1-4)GlcNAc(b1-4)GlcNAc
# How it was run: as §1
# [27] = target: Fuc(a1-2)[GalNAc(a1-3)]Gal(b1-3)GlcNAc(b1-2)Man(a1-3)[Fuc(a1-2)[GalNAc(a1-3)]Gal(b1-3)GlcNAc(b1-2)Man(a1-6)]Man(b1-4)GlcNAc(b1-4)[Fuc(a1-6)]GlcNAc
# How it was run: as §1
# [28] = target: Fuc(a1-2)[GalNAc(a1-3)]Gal(b1-3)GlcNAc(b1-3)GalNAc
# How it was run: as §1
binder,measurement,setting,value
B1,glycan array binding signal (z-score),[1],-0.326
same,glycan array binding signal (z-score),[2],0.025
same,glycan array binding signal (z-score),[3],1.45
same,glycan array binding signal (z-score),[4],1.38
same,glycan array binding signal (z-score),[5],-0.982
same,glycan array binding signal (z-score),[6],-0.08
same,glycan array binding signal (z-score),Fuc(a1-2)Gal6S(b1-4)Glc,0.584
same,glycan array binding signal (z-score),[7],0.047
same,glycan array binding signal (z-score),[8],-0.593
same,glycan array binding signal (z-score),Fuc(a1-2)[Gal(a1-3)]Gal,-1.07
same,glycan array binding signal (z-score),[9],-0.601
same,glycan array binding signal (z-score),[10],-0.483
same,glycan array binding signal (z-score),[11],5.67
same,glycan array binding signal (z-score),[12],0.251
same,glycan array binding signal (z-score),[13],2.01
same,glycan array binding signal (z-score),[14],-0.321
same,glycan array binding signal (z-score),[15],-1.17
same,glycan array binding signal (z-score),[16],1.64
same,glycan array binding signal (z-score),[17],1.23
same,glycan array binding signal (z-score),[18],1.18
same,glycan array binding signal (z-score),[19],0.252
same,glycan array binding signal (z-score),[20],0.436
same,glycan array binding signal (z-score),[21],0.251
same,glycan array binding signal (z-score),[22],-0.649
same,glycan array binding signal (z-score),[23],-0.523
same,glycan array binding signal (z-score),[24],0.915
same,glycan array binding signal (z-score),[25],0.499
same,glycan array binding signal (z-score),[26],1.15
same,glycan array binding signal (z-score),[27],1.3
same,glycan array binding signal (z-score),[28],2.46

# A run of entries taken from the entries so far:
binder,measurement,setting,value
B1,glycan array binding signal (z-score),[2],0.025
same,glycan array binding signal (z-score),[3],1.45

# — the supplement of paper PMC8728848
